According to US20060242739A1, “Plant nucleotide-sugar pyrophosphatase/phosphodiesterase (nppase), method of obtaining same and use of same in the production of assay devices and in the production of transgenic plants” (Universidad Publica De Navarra, priority 2002, published 2006):

Biological target: T1, NPPase from barley leaves (Hordeum vulgare, UniProt Q687E1)
T1 sequence (Q687E1 19-368): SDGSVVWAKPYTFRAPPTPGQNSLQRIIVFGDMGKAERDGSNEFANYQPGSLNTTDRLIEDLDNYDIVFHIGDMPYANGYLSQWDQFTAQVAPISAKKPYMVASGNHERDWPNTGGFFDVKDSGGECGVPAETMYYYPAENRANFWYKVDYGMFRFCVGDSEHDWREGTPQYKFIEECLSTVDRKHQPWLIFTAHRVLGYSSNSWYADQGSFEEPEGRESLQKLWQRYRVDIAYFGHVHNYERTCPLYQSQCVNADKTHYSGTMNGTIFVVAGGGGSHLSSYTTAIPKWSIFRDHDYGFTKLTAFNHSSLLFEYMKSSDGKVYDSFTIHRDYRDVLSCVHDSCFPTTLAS
Test: Enzymatic test of soluble NPPase from barley leaves: kinetic parameters, substrate specificity, effectors

Compound: Nc1ncnc2c1ncn2[C@@H]1O[C@H](COP(=O)(O)OS(=O)(=O)O)[C@@H](O)[C@H]1O [APS, adenosine 5′-phosphosulphate]
- Vmax (Vmax in % in relation to ADPG, NPPase from barley leaves): 160%
- hydrolysis by NPPase (substrate recognition) (qualitative): catalyses the hydrolysis
